Assay results reported in the supplement of paper PMC3682954.
Structures can show the parent of a compound that is named as a salt. ± gives the standard deviation of the averaged measurements. Some of the results follow. Most values come without repeats; read them as rough.

System: RAW 264.7
Assay: cell viability (MTT) relative to vehicle control; higher = more viable cells
Settings: stimulus: HMGB1 5 ug/ml, 18 h
[1] = compound concentration: 1 ug/ml

SMILES | cell viability (compound concentration: 3 uM) | cell viability [1]
O=[N+]([O-])c1ccc(O)c([N+](=O)[O-])c1 | 96.7% | 
CCn1cnc2c(Nc3cccc(Cl)c3)nc(N[C@@H]3CCCC[C@@H]3N)nc21 | 97.8% | 
Clc1ccc(N2CCN(Cc3c[nH]c4ncccc34)CC2)cc1 [L-745,870 hydrochloride] | 111% | 
O=S1(=O)N(CCN2CC=C(c3c[nH]c4cc(F)ccc34)CC2)c2cccc3c2N1CCC3 | 105% | 
CN1CC[C@]2(c3cccc(O)c3)Cc3nc4ccccc4cc3C[C@H]2C1 | 102% | 
NCCc1c[nH]c2ccc(C(N)=O)cc12 [5-Carboxamidotryptamine maleate] | 108% | 
NCCC(O)C(=O)NC1CC(N)C(OC2OC(CN)C(O)[C@H](O)[C@@H]2N)[C@H](OC2O[C@H](CO)[C@@H](O)[C@@H]2O)[C@@H]1O (stereo partly specified) [Butirosin disulfate salt] | 99.9% | 
CN[C@@H](Cc1c[nH]c2ccccc12)C(=O)O [L-abrine] |  | 92.2%
C=C1[C@@H](C)[C@H]2[C@H](Cc3ccccc3)NC(=O)[C@]23OC(=O)/C=C/C(=O)CCC[C@@H](C)C/C=C/[C@H]3[C@@H]1O | 84.4% | 
Nc1ccc([As](=O)(O)O)cc1 | 105% | 
O=C1Nc2ccc(Cl)cc2C(c2ccccc2Cl)=NC1O (stereo unspecified) [Lorazepam] | 94.8% | 
CCCCCCC1C(=O)OC(C)C(NC(=O)c2cccc(NC=O)c2O)C(=O)OC(C)C1OC(=O)CC(C)C (stereo unspecified) [Animicin A] |  | 79.5%
O=C1CC[C@@]2(O)[C@H]3Cc4ccc(O)c5c4[C@@]2(CCN3CC2CC2)[C@H]1O5 [Naltrexone hydrochloride] | 112% | 
O=C1CC[C@@]2(O)[C@H]3Cc4ccc(O)c5c4[C@@]2(CCN3CC2CC2)[C@H]1O5 [Naltrexone] | 97% | 
O=C1CC[C@@]2(O)[C@H]3Cc4ccc(O)c5c4[C@@]2(CCN3CC2CC2)[C@H]1O5 | 101% | 
O=C1CC[C@@]2(O)[C@H]3Cc4ccc(O)c5c4[C@@]2(CCN3CC2CC2)[C@H]1O5 [Naltrexone hydrochloride dihydrate] | 97.8% | 
NC(=O)c1cc([N+](=O)[O-])cc([N+](=O)[O-])c1 | 104 ± 11% | 
Cn1c(CCCC(=O)O)nc2cc(N(CCCl)CCCl)ccc21 [Bendamustine hydrochloride] | 104% | 
CN1CCc2cc(O)cc3c2[C@H]1Cc1ccc(O)c(O)c1-3 [R(-)-2,10,11-Trihydroxyaporphine hybrobromide] | 95.9% | 
CN[C@@H]1[C@@H](O)[C@@H](O[C@@H]2[C@@H](O)[C@H](O[C@H]3O[C@H](CN)CC[C@H]3N)[C@@H](N)C[C@H]2N)OC[C@]1(C)O.CN[C@@H]1[C@@H](O)[C@@H](O[C@@H]2[C@@H](O)[C@H](O[C@H]3O[C@H]([C@@H](C)N)CC[C@H]3N)[C@@H](N)C[C@H]2N)OC[C@]1(C)O.CN[C@@H]1[C@@H](O)[C@@H](O[C@@H]2[C@@H](O)[C@H](O[C@H]3O[C@H]([C@@H](C)NC)CC[C@H]3N)[C@@H](N)C[C@H]2N)OC[C@]1(C)O | 102% | 
CN[C@@H]1[C@@H](O)[C@@H](O[C@@H]2[C@@H](O)[C@H](O[C@H]3O[C@H](CN)CC[C@H]3N)[C@@H](N)C[C@H]2N)OC[C@]1(C)O.CN[C@@H]1[C@@H](O)[C@@H](O[C@@H]2[C@@H](O)[C@H](O[C@H]3O[C@H]([C@@H](C)N)CC[C@H]3N)[C@@H](N)C[C@H]2N)OC[C@]1(C)O.CN[C@@H]1[C@@H](O)[C@@H](O[C@@H]2[C@@H](O)[C@H](O[C@H]3O[C@H]([C@@H](C)NC)CC[C@H]3N)[C@@H](N)C[C@H]2N)OC[C@]1(C)O [Gentamicine sulfate] | 100% | 
